# Experimental data as given in article PMC6262455 (Cells, 2018).
# System: human colon adenocarcinoma cell line (LoVo)
# Test: cells
# Type: cell-based
# Settings: 72 h, read-out: IC50 LoVo
# Excerpt: The BALB/3T3 cell line was purchased from the American Type Culture Collection (ATCC, Manassas, VA, USA), A549 and MCF-7 cell lines—from European Collection of Authenticated Cell Cultures (Salisbury, UK). The LoVo cell line was purchased from the American Type Culture Collection (ATCC, Manassas, VA, USA), and LoVo/DX by courtesy of Prof. E. Borowski (Technical University of Gdańsk, Gdańsk, Poland). All the cell lines are maintained in the Institute of Immunology and Experimental Therapy (IIET), Wroclaw, Poland. […]
# After 72 h of incubation with the tested compounds, cells were fixed in situ by gently adding 50 μL per well of cold 50% trichloroacetic acid TCA (POCh, Gliwice, Poland) and were incubated at 4 °C for one hour. […] Absorbance of each solution was read at Synergy H4 Hybrid Multi-Mode Microplate Reader (BioTek Instruments, Inc., Winooski, VT, USA) at the 540 nm wavelength.
# IC50 values were calculated in Cheburator 0.4, Dmitry Nevozhay software (version 1.2.0 software by Dmitry Nevozhay, 2004–2014, http://www.cheburator.nevozhay.com, freely available) for each experiment. […] The Resistance Index (RI) was defined as the ratio of IC50 for a given compound calculated for resistant cell line to that measured for its parental drug sensitive cell line (Table 1).
smiles,measurement,value
"COc1cc2c(c(OC)c1OC)-c1ccc(OC)c(=O)cc1[C@@H](NC(C)=O)CC2 [Compound 1, Colchicine, reference compound]",IC50,108 ± 25 nM
